Measurements: patent US8324152B2, “Composition for the treatment of atherosclerosis” (Institute National de la Sante et de la Recherche Medicale …, priority 2005, dated 2012)

Test: Total plasma cholesterol in apoE-/- mice after subcutaneous mini-osmotic pump delivery of peptide
Format: in vivo
[1] = Example 1, 10 μg per day s.c. mini-osmotic pump for 14 days, killed at 19 weeks of age
[2] = Example 2, 10 μg per day s.c. pump for 14 days, kept another 6 weeks, killed at 19 weeks of age
[3] = Example 2, s.c. pump for 14 days, kept another 10 weeks, killed at 23 weeks of age

| Substance | Total plasma cholesterol levels [1] | Total plasma cholesterol levels [2] | Total plasma cholesterol levels [3] |
| --- | --- | --- | --- |
| KTTKQSFDLSVKAQYKKNKH (peptide derived from apolipoprotein B) [P210, Human apoB-100 derived peptide, amino acids 3136 to 3155] | 4.66 ± 0.45 g/L | 4.94 ± 0.39 g/L | 5.40 ± 0.67 g/L |
| FPDLGQEVALNANTKNQKIR (peptide derived from apolipoprotein B) [P240, Human apoB-100 derived peptide, amino acids 3586 to 3605] | 4.95 ± 0.59 g/L | 4.81 ± 0.51 g/L | 6.64 ± 0.64 g/L |
| ISQAVHAAHAEINEAGR (peptide derived from ovalbumin) [Control: chicken ovalbumin (OVA) peptide, amino acids 323 to 339, reference compound] | – | 5.51 ± 0.78 g/L | – |
| MDA-P210: Malondialdehyde (MDA)-modified human apoB-100 derived peptide; native P210 modified by 0.5 mol/L MDA for 3 hours at 37° C. (KTTKQSFDLSVKAQYKKNKH) | 5.84 ± 0.61 g/L | 5.49 ± 0.50 g/L | 4.67 ± 0.89 g/L |
